Results published in PubChem BioAssay AID504834 (National Center for Advancing Translational Sciences (NCATS), 2011).
Screen size: about 320,000 compounds; about 22,000 (6.9%) were called active. The shares of active, inactive and inconclusive entries below differ from those in the screen. The call rests on the fitted dose curve; in most records, active means well fitted inhibition curve with a large enough effect; inconclusive means small, poorly fitted or top-dose-only effect, or another doubt; inactive means no such curve, though single readings can be large or run the other way. A potency beside an inconclusive call is a rough fit, not a confirmed value.

Assay: Primary qHTS for delayed death inhibitors of the malarial parasite plastid, 96 hour incubation
Settings: P. falciparum luciferase reporter growth; series mostly up to 28.7 µM; activity change, negative = inhibition: at the top concentration
How it was run: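 Two-generation exposure (96 h) targets delayed-death phenotype. Reporter parasites carrying integrated firefly luciferase, in red cells at 2% hematocrit and 0.05% parasitemia final, kept at 37 C, 5% CO2; luminescence loss indicates inhibition.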
On the % scale 0 is the no-effect control and ±100 the full control effect; potency means the concentration at half of the fitted maximal effect.

| SMILES | activity change, negative = inhibition | Potency |
| --- | --- | --- |
| Cc1cc(-c2ccccc2)c2c(n1)sc1c(O)cc(=O)[nH]c12 | inactive: 22.8% | – |
| CCOc1ccc2nc(SCC(=O)c3ccc(O)cc3O)sc2c1 | – | inconclusive: 0.586 µM [inhibitor, full curve] |
| O=C(Cc1ccc(NC2=NC3CS(=O)(=O)CC3S2)cc1)NCc1ccc(Cl)cc1 (stereo unspecified) | – | inconclusive: 18.5 µM [inhibitor, single point] |
| Cc1cccc(COc2coc(CN3CCN(C(=O)c4ccco4)CC3)cc2=O)c1 | – | active: 11.7 µM |
| O=[N+]([O-])c1cnn(-c2nc(-c3ccco3)cc(C(F)(F)F)n2)c1 | – | active: 11.7 µM |
| O=C(O)c1cccc(N2C(=O)c3cccc4c(Cl)ccc(c34)C2=O)c1 | – | inconclusive: 5.22 µM [inhibitor, partial curve, poor fit] |
| COc1ccc(-c2csc(N(Cc3ccccc3)C(=O)COc3ccc(Cl)cc3)n2)cc1 | – | inconclusive: 7.38 µM [inhibitor, partial curve] |
| Cc1ccc(/C=N/NC(=O)Cc2ccc(O)cc2)s1 | – | active: 7.38 µM |
| O=C(Nc1ccccc1C(=O)NC1CC1)c1ccc([N+](=O)[O-])o1 | – | active: 10.4 µM |
| N#Cc1c(/N=C\c2ccc(O)c([N+](=O)[O-])c2)sc2c1CCCC2 | inactive: 82% | – |
| CCOCCn1c(CN(C)Cc2ccccc2)nc2c1c(=O)n(C)c(=O)n2C | inactive: 17.5% | – |
| Cc1coc2c(O)cc3c(c12)OC1(N2CCCCC2)C(=O)NCCCC31 (stereo unspecified) | – | active: 9.28 µM |
| CCC(C)(C)NC(=O)C(c1ccc(F)cc1)N(Cc1ccc(OC)cc1)C(=O)c1cnccn1 (stereo unspecified) | – | inconclusive: 0.828 µM [inhibitor, partial curve, poor fit] |
| CCOc1ccc(N2CC(C(=O)Nc3ccc(F)cc3F)CC2=O)cc1 (stereo unspecified) | – | active: 9.28 µM |
| CSc1ncc(F)c(N(CCO)CCO)n1 | inactive: 48.8% | – |
| O=C(CCCn1c(=S)[nH]c2cc3c(cc2c1=O)OCO3)N1CCN(c2ccccc2F)CC1 | – | inconclusive: 11.7 µM [inhibitor, single point] |
| Cc1c(C(=O)NCc2ccco2)oc2ccc(S(=O)(=O)N3CCC4(CC3)OCCO4)cc12 | – | inconclusive: 1.04 µM [inhibitor, partial curve, poor fit] |
| CN(c1ccccc1)S(=O)(=O)c1cccc(NC(=O)CSc2ncn[nH]2)c1 | inactive: 6.08% | – |
| COC(=O)c1[nH]c2ccc(Br)cc2c1NC(=O)CN1CCCc2ccccc21 | – | active: 10.4 µM |
| O=C1c2ccccc2-c2onc3ccc(NCCCn4ccnc4)c1c23 | – | active: 13.1 µM |
| CCOc1ccc(NC(=S)NC(=O)c2c(Br)cnn2C)c([N+](=O)[O-])c1 | – | inconclusive: 18.5 µM [inhibitor, single point] |

At a glance, some entries already given:

| SMILES | activity change, negative = inhibition | Potency |
| --- | --- | --- |
| Cc1coc2c(O)cc3c(c12)OC1(N2CCCCC2)C(=O)NCCCC31 (stereo unspecified) | – | active: 9.28 µM |
| CCC(C)(C)NC(=O)C(c1ccc(F)cc1)N(Cc1ccc(OC)cc1)C(=O)c1cnccn1 (stereo unspecified) | – | inconclusive: 0.828 µM [inhibitor, partial curve, poor fit] |
| CCOc1ccc(N2CC(C(=O)Nc3ccc(F)cc3F)CC2=O)cc1 (stereo unspecified) | – | active: 9.28 µM |
| CSc1ncc(F)c(N(CCO)CCO)n1 | inactive: 48.8% | – |
| O=C(CCCn1c(=S)[nH]c2cc3c(cc2c1=O)OCO3)N1CCN(c2ccccc2F)CC1 | – | inconclusive: 11.7 µM [inhibitor, single point] |
| Cc1c(C(=O)NCc2ccco2)oc2ccc(S(=O)(=O)N3CCC4(CC3)OCCO4)cc12 | – | inconclusive: 1.04 µM [inhibitor, partial curve, poor fit] |
